# Laboratory results taken from the supplement of paper PMC10077471.
# Whole data set: some 1,900 compounds, median “excess over highest single agent (ExcessHSA) synergy score, 6x6 matrix” near -83, cut for the lowest 2% near -370. Some of the results follow.
# Tested on: NCI-H446
# Test: excess over highest single agent (ExcessHSA) synergy score, 6x6 matrix; higher = less synergy (more negative = stronger synergy)
# Conditions: 72 h; CellTiter-Glo viability
row,Structure (SMILES),excess over highest single agent
1,CC1CCN(c2cc(N3CCN(C)CC3)ccc2NC(=O)c2cc(C#N)c[nH]2)CC1 + Cc1sc2c(c1C)C(c1ccc(Cl)cc1)=N[C@@H](CC(=O)OC(C)(C)C)c1nnc(C)n1-2 [NCGC00250412-19],106
2,CN(C)CCN1C(=O)c2cccc3cc(N)cc(c23)C1=O + Cc1sc2c(c1C)C(c1ccc(Cl)cc1)=N[C@@H](CC(=O)OC(C)(C)C)c1nnc(C)n1-2 [NCGC00250412-19],-103
3,CCOc1ccc(Cc2cc([C@@H]3O[C@H](CO)[C@@H](O)[C@H](O)[C@H]3O)ccc2Cl)cc1 + Cc1sc2c(c1C)C(c1ccc(Cl)cc1)=N[C@@H](CC(=O)OC(C)(C)C)c1nnc(C)n1-2 [NCGC00250412-19],-1.43
4,O=c1cc(CN2CCOCC2)occ1OCCCCCSc1ccnc2cc(C(F)(F)F)ccc12 + Cc1sc2c(c1C)C(c1ccc(Cl)cc1)=N[C@@H](CC(=O)OC(C)(C)C)c1nnc(C)n1-2 [NCGC00250412-19],-106
5,O=C(O)c1cc(=O)c2c(OCC(O)COc3cccc4oc(C(=O)O)cc(=O)c34)cccc2o1 + Cc1sc2c(c1C)C(c1ccc(Cl)cc1)=N[C@@H](CC(=O)OC(C)(C)C)c1nnc(C)n1-2 [NCGC00250412-19],-36.5
6,Oc1ccc(C2=Cc3ccc(O)cc3OC2)cc1 + Cc1sc2c(c1C)C(c1ccc(Cl)cc1)=N[C@@H](CC(=O)OC(C)(C)C)c1nnc(C)n1-2 [NCGC00250412-19],-209
7,Cc1ccc(O)c([C@H](CCN(C(C)C)C(C)C)c2ccccc2)c1 + Cc1sc2c(c1C)C(c1ccc(Cl)cc1)=N[C@@H](CC(=O)OC(C)(C)C)c1nnc(C)n1-2 [NCGC00250412-19],-50.3
8,CC(C)c1cccc(C(C)C)c1O + Cc1sc2c(c1C)C(c1ccc(Cl)cc1)=N[C@@H](CC(=O)OC(C)(C)C)c1nnc(C)n1-2 [NCGC00250412-19],-180
9,CCCCOc1ccc(CC(=O)NO)cc1 + Cc1sc2c(c1C)C(c1ccc(Cl)cc1)=N[C@@H](CC(=O)OC(C)(C)C)c1nnc(C)n1-2 [NCGC00250412-19],194
10,NC[C@H]1CC[C@H](C(=O)O)CC1 + Cc1sc2c(c1C)C(c1ccc(Cl)cc1)=N[C@@H](CC(=O)OC(C)(C)C)c1nnc(C)n1-2 [NCGC00250412-19],-27.6
11,COc1ccc2nc3cc(Cl)ccc3c(Nc3cc(CN4CCCC4)c(O)c(CN4CCCC4)c3)c2n1 + Cc1sc2c(c1C)C(c1ccc(Cl)cc1)=N[C@@H](CC(=O)OC(C)(C)C)c1nnc(C)n1-2 [NCGC00250412-19],-49.7
12,C[C@H]1c2cccc(O)c2C(O)=C2C(=O)[C@]3(O)C(O)=C(C(N)=O)C(=O)[C@@H](N(C)C)[C@@H]3[C@@H](O)[C@@H]21 + Cc1sc2c(c1C)C(c1ccc(Cl)cc1)=N[C@@H](CC(=O)OC(C)(C)C)c1nnc(C)n1-2 [NCGC00250412-19],-128
13,Nc1nc(=O)c2c([nH]1)NCC(CNc1ccc(C(=O)N[C@@H](CCC(=O)O)C(=O)O)cc1)N2C=O (some centres not stated) + Cc1sc2c(c1C)C(c1ccc(Cl)cc1)=N[C@@H](CC(=O)OC(C)(C)C)c1nnc(C)n1-2 [NCGC00250412-19],19.2
14,Cc1ccccc1C(C(=O)NC1CCCC1)N(C(=O)Cn1cnc2ccccc21)c1cccc(F)c1 (configuration not stated) + Cc1sc2c(c1C)C(c1ccc(Cl)cc1)=N[C@@H](CC(=O)OC(C)(C)C)c1nnc(C)n1-2 [NCGC00250412-19],-161
15,Cn1c(=O)c(F)c(Nc2ccc(I)cc2F)c2c(=O)n(C[C@@H](O)CO)cnc21 + Cc1sc2c(c1C)C(c1ccc(Cl)cc1)=N[C@@H](CC(=O)OC(C)(C)C)c1nnc(C)n1-2 [NCGC00250412-19],-396
16,CN[C@@H]1Cc2cccc3[nH]c(=O)n(c23)C1 + Cc1sc2c(c1C)C(c1ccc(Cl)cc1)=N[C@@H](CC(=O)OC(C)(C)C)c1nnc(C)n1-2 [NCGC00250412-19],-180
17,COc1ccc(-c2cc3c(C)nc(N)nc3n([C@H]3CC[C@H](OCCO)CC3)c2=O)cn1 + Cc1sc2c(c1C)C(c1ccc(Cl)cc1)=N[C@@H](CC(=O)OC(C)(C)C)c1nnc(C)n1-2 [NCGC00250412-19],-297
18,O=c1[nH]c(=O)n([C@H]2C[C@H](O)[C@@H](CO)O2)cc1/C=C/Br + Cc1sc2c(c1C)C(c1ccc(Cl)cc1)=N[C@@H](CC(=O)OC(C)(C)C)c1nnc(C)n1-2 [NCGC00250412-19],-69.9
19,CCC(C)(C)c1ccc(CC(C)CN2C[C@@H](C)O[C@@H](C)C2)cc1 (some centres not stated) + Cc1sc2c(c1C)C(c1ccc(Cl)cc1)=N[C@@H](CC(=O)OC(C)(C)C)c1nnc(C)n1-2 [NCGC00250412-19],-69.1

# Two entries drawn at random from the list so far:
row,Structure (SMILES),excess over highest single agent
18,O=c1[nH]c(=O)n([C@H]2C[C@H](O)[C@@H](CO)O2)cc1/C=C/Br + Cc1sc2c(c1C)C(c1ccc(Cl)cc1)=N[C@@H](CC(=O)OC(C)(C)C)c1nnc(C)n1-2 [NCGC00250412-19],-69.9
1,CC1CCN(c2cc(N3CCN(C)CC3)ccc2NC(=O)c2cc(C#N)c[nH]2)CC1 + Cc1sc2c(c1C)C(c1ccc(Cl)cc1)=N[C@@H](CC(=O)OC(C)(C)C)c1nnc(C)n1-2 [NCGC00250412-19],106

# Later entries

row,Structure (SMILES),excess over highest single agent
1,CCOC(=O)c1ccc(C#Cc2ccc3c(c2)C(C)(C)CCS3)nc1 + Cc1sc2c(c1C)C(c1ccc(Cl)cc1)=N[C@@H](CC(=O)OC(C)(C)C)c1nnc(C)n1-2 [NCGC00250412-19],-68.9
2,Cc1c(N)nc([C@H](CC(N)=O)NC[C@@H](N)C(N)=O)nc1C(=O)N[C@H](C(=O)N[C@@H](C)[C@H](O)[C@@H](C)C(=O)N[C@@H](C(=O)NCCc1nc(-c2nc(C(=O)NCCC[S+](C)C)cs2)cs1)[C@@H](C)O)C(O[C@H]1O[C@H](CO)[C@H](O)[C@@H](O)[C@H]1O[C@H]1O[C@H](CO)[C@@H](O)[C@H](OC(N)=O)[C@@H]1O)c1cnc[nH]1 (some centres not stated) + Cc1sc2c(c1C)C(c1ccc(Cl)cc1)=N[C@@H](CC(=O)OC(C)(C)C)c1nnc(C)n1-2 [NCGC00250412-19],-335
3,CC(C)(C)C#Cc1cc(N(C(=O)[C@H]2CC[C@H](C)CC2)[C@H]2CC[C@H](O)CC2)c(C(=O)O)s1 + Cc1sc2c(c1C)C(c1ccc(Cl)cc1)=N[C@@H](CC(=O)OC(C)(C)C)c1nnc(C)n1-2 [NCGC00250412-19],-16.2
4,O=C(NC1CC1)c1cccc(-c2ccc3c(NC(=O)C4CC4)n[nH]c3c2)c1 + Cc1sc2c(c1C)C(c1ccc(Cl)cc1)=N[C@@H](CC(=O)OC(C)(C)C)c1nnc(C)n1-2 [NCGC00250412-19],-148
5,CC(CCc1ccc(O)cc1)NCCc1ccc(O)c(O)c1 (configuration not stated) + Cc1sc2c(c1C)C(c1ccc(Cl)cc1)=N[C@@H](CC(=O)OC(C)(C)C)c1nnc(C)n1-2 [NCGC00250412-19],-18.6
6,CCCNS(=O)(=O)Nc1ncnc(OCCOc2ncc(Br)cn2)c1-c1ccc(Br)cc1 + Cc1sc2c(c1C)C(c1ccc(Cl)cc1)=N[C@@H](CC(=O)OC(C)(C)C)c1nnc(C)n1-2 [NCGC00250412-19],-2.95
7,COc1ccc(-c2oc3c(CC=C(C)C)c(O)cc(O)c3c(=O)c2O)cc1 + Cc1sc2c(c1C)C(c1ccc(Cl)cc1)=N[C@@H](CC(=O)OC(C)(C)C)c1nnc(C)n1-2 [NCGC00250412-19],-15.1
8,O=C1C(Cl)=C(NCCN2CCOCC2)C(=O)c2ncccc21 + Cc1sc2c(c1C)C(c1ccc(Cl)cc1)=N[C@@H](CC(=O)OC(C)(C)C)c1nnc(C)n1-2 [NCGC00250412-19],3.89
9,O=C(CCN1CCN(C(=O)OCc2cc(Cl)cc(Cl)c2)CC1)c1ccc2[nH]c(=O)oc2c1 + Cc1sc2c(c1C)C(c1ccc(Cl)cc1)=N[C@@H](CC(=O)OC(C)(C)C)c1nnc(C)n1-2 [NCGC00250412-19],-78.3
10,Nc1ccc(S(N)(=O)=O)cc1 + Cc1sc2c(c1C)C(c1ccc(Cl)cc1)=N[C@@H](CC(=O)OC(C)(C)C)c1nnc(C)n1-2 [NCGC00250412-19],-34.5
11,CCN(CC)CCCCNc1ncc2c(n1)N(C)C(=O)N(c1c(Cl)c(OC)cc(OC)c1Cl)C2 + Cc1sc2c(c1C)C(c1ccc(Cl)cc1)=N[C@@H](CC(=O)OC(C)(C)C)c1nnc(C)n1-2 [NCGC00250412-19],13.2
12,CC(C)C[C@H](NC(=O)c1cc2ccccc2s1)C(=O)N1CCN(C(=O)[C@H](CO)NS(=O)(=O)c2ccc(Cl)cc2Cl)CC1 + Cc1sc2c(c1C)C(c1ccc(Cl)cc1)=N[C@@H](CC(=O)OC(C)(C)C)c1nnc(C)n1-2 [NCGC00250412-19],-254
13,O=[N+]([O-])c1ncc[nH]1 + Cc1sc2c(c1C)C(c1ccc(Cl)cc1)=N[C@@H](CC(=O)OC(C)(C)C)c1nnc(C)n1-2 [NCGC00250412-19],-37.9
14,CC(C)(Oc1ccc(C2CC2(Cl)Cl)cc1)C(=O)O (configuration not stated) + Cc1sc2c(c1C)C(c1ccc(Cl)cc1)=N[C@@H](CC(=O)OC(C)(C)C)c1nnc(C)n1-2 [NCGC00250412-19],-55.3
15,c1ccc2c(-c3cnn4cc(-c5ccc(N6CCNCC6)cc5)cnc34)ccnc2c1 + Cc1sc2c(c1C)C(c1ccc(Cl)cc1)=N[C@@H](CC(=O)OC(C)(C)C)c1nnc(C)n1-2 [NCGC00250412-19],77
16,NC(=O)[C@@H](CCC(F)(F)F)N(Cc1ccc(-c2ncon2)cc1F)S(=O)(=O)c1ccc(Cl)cc1 + Cc1sc2c(c1C)C(c1ccc(Cl)cc1)=N[C@@H](CC(=O)OC(C)(C)C)c1nnc(C)n1-2 [NCGC00250412-19],-180
17,Cc1[nH]c(/C=C2\C(=O)Nc3ccc(S(=O)(=O)Cc4c(Cl)cccc4Cl)cc32)c(C)c1C(=O)N1CCC[C@@H]1CN1CCCC1 + Cc1sc2c(c1C)C(c1ccc(Cl)cc1)=N[C@@H](CC(=O)OC(C)(C)C)c1nnc(C)n1-2 [NCGC00250412-19],-109
18,Nc1nc(Nc2ccc(S(N)(=O)=O)cc2)nn1C(=O)c1c(F)cccc1F + Cc1sc2c(c1C)C(c1ccc(Cl)cc1)=N[C@@H](CC(=O)OC(C)(C)C)c1nnc(C)n1-2 [NCGC00250412-19],-304
